This experiment in a line: qHTS Assay for Lipid Storage Modulators in Drosophila S3 Cells.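 As to cell number change: cells counted by Cell Tracker Red CMTPX staining in the red channel.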 As to conditions: BODIPY lipid droplet fluorescence, 18-24 h; for cell number change: measured here: cell count max response, cells fed with added oleic acid. The essentials: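 Drosophila S3 cells loaded with oleic acid (400 uM, as added) and compounds at several concentrations; lipid droplets imaged by 488-nm laser-scanning cytometry, 500–530 nm intensity and object ratio to cell channel. Percent activity normalized to 20 uM Triacsin C.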
(Quantitative high-throughput screening tests each substance at several concentrations.)

The mark [1] stands for this setting: measured here: cell number channel AC50, cells fed with added oleic acid.
The mark [2] stands for this setting: measured here: lipid fluorescence (Fed channel) AC50, cells fed with added oleic acid.

Some of the results follow. Further columns of the screen follow, without active or inactive calls. Most of these compounds were active or inconclusive in the main read-out, so they are no random draw. Words in brackets tell the shape of the fitted curve; partial curves, single points and poor fits give uncertain potencies.

Usually AC50 stands for the concentration at which the activity in the assay is half-maximal. Lower therefore signals activity at low concentration. Take `CC(=O)c1ccccc1NC(=O)COC(=O)c1cc2ccccc2[nH]1`: the cell number change was -38.7%. The AC50 under setting [1] is 18.4 µM [falling, single point]. Regarding `Cc1ccc2oc(=O)n(Cc3ccc(OC(C)C)cc3)c2c1`, the cell number change is 10.5%. Regarding `CCOC(=O)c1c(NC(=O)c2nn(C)cc2[N+](=O)[O-])sc(C)c1C`, the cell number change came out at 30%. The AC50 under setting [1] was 32.6 µM [rising, single point]. `O=C(NC1=NCCS1)C1CCN(S(=O)(=O)c2ccccc2C(F)(F)F)CC1`: the cell number change was found to be 0.752%. In addition, under setting [2], the AC50 is 13 µM [falling, partial curve]. Take `CCOC(=O)CC(C)(C)/C(C)=N/Nc1ccc([N+](=O)[O-])cc1[N+](=O)[O-]`: the cell number change was -44.1%. In addition, the AC50 under setting [1] was 0.82 µM [rising, full curve]. For the same molecule, under setting [2], the AC50 is 0.82 µM [rising, full curve]. For `COc1cc([N+](=O)[O-])cc2sc(NC(=O)c3c(F)cccc3F)nc12`, the cell number change was -26.3%. Besides, the AC50 under setting [2] was 2.59 µM [falling, single point].

`COc1ccccc1C(=O)Nc1onc(C)c1C#N`: the cell number change was determined as 22.2%. Further, the AC50 under setting [2] was 4.61 µM [rising, full curve, poor fit]. In the case of `Cc1ccc(S(=O)(=O)n2ccc3c(OCCOCCSCC(NC(=O)OC(C)(C)C)C(=O)O)cccc32)cc1` (configuration not stated), the cell number change is -24.1%.

With `CCCCC(=O)N(c1ccc(C(=O)O)cc1)c1nc(-c2ccc(Cl)cc2)c(CC)s1`, the cell number change is -55.7%. Also, the AC50 under setting [1] is 0.651 µM [falling, full curve, poor fit]. The AC50 under setting [2] is 1.03 µM [falling, partial curve]. `COc1ccc(OC)c(Nc2nc(-c3ccncc3)nc3ccccc23)c1`: the cell number change was 4.5%. Besides, the AC50 under setting [1] was 1.46 µM [rising, full curve]. The AC50 under setting [2] was 11.6 µM [falling, single point]. As to `N#Cc1ccc(/C=C\c2nccc3c2[nH]c2ccccc23)cc1`, the cell number change is -51.5%. Besides, the AC50 under setting [1] was 6.51 µM [falling, full curve]. Further, under setting [2], the concentration at half-maximal activity (AC50) is 9.2 µM [falling, partial curve]. Take `N#CCCN(C(=O)CSc1ccc2c(c1)OCCO2)c1ccccc1`: the cell number change is 19.8%. Moreover, under setting [2], the AC50 was 0.00461 µM [falling, full curve, poor fit]. For `CC(C(=O)OCC(=O)c1ccc([N+](=O)[O-])cc1)N1C(=O)C2C3C=CC(C3)C2C1=O` (configuration not stated), the cell number change was -16.4%. On to `C/C(=N\OC(=O)NC(C)C)c1sc(-c2ccccc2)nc1C`, for which the AC50 is, setting by setting: under setting [1], 0.82 µM [rising, partial curve, poor fit]; under setting [2], 29.1 µM [falling, single point]. With `COc1cccc(N2CCN(CC(=O)NCc3ccccc3)CC2)c1`, the cell number change is 5.07%. In addition, the AC50 under setting [2] is 20.6 µM [falling, single point]. Regarding `C[C@@H](C(=O)NCc1ccccc1)[C@@H]1C[C@@]1(C)[C@@H](NC(=O)OCc1ccccc1)c1ccccc1`, the cell number change was -1.42%. Take `O=S(=O)(Cc1cc(Sc2ccc(Cl)cc2)nc(-c2ccccc2)n1)c1ccccc1`: the concentration at half-maximal activity (AC50) is 0.082 µM [rising, partial curve, poor fit] under setting [1] and 9.2 µM [rising, partial curve, poor fit] under setting [2]. For `CCOc1ccc2[nH]c(C)c(CN(C)C)c(=O)c2c1`, the cell number change was 4.13%. The AC50 under setting [2] was 7.31 µM [falling, partial curve]. As for `CCOC(=O)C1CCN(C(=O)/C(=C/c2ccccc2)NC(=O)c2ccccc2)CC1`, the cell number change was found to be 4.69%. In addition, the AC50 under setting [2] is 5.8 µM [falling, single point].

`COc1cccc(COc2cc3ccccc3nc2C)c1`: the cell number change was -43.3%. For the same molecule, the AC50 under setting [1] is 10.3 µM [falling, partial curve]. Under setting [2], the AC50 was 18.4 µM [falling, partial curve]. As to `CCC(Cc1ccccc1)NS(=O)(=O)c1ccc2c(c1)NC(=O)CS2` (configuration not stated), the cell number change is -44.5%. The AC50 under setting [1] was 29.1 µM [falling, single point]. In addition, under setting [2], the AC50 was 29.1 µM [falling, single point]. As for `Cc1ccc(O)c(Nc2c3ccccc3nc3ccccc23)c1`, the cell number change is -35.5%. Further, the AC50 under setting [1] is 29.1 µM [falling, single point]. Consider `CC(C)C[C@H](NC(=O)c1[nH]cnc1C(=O)N[C@@H](C)C(=O)OC(C)(C)C)C(=O)OC(C)(C)C`, for which the cell number change was -40.9%. Under setting [1], the AC50 is 29.1 µM [falling, single point].

As for `Cc1nn(C(C)C)c(C)c1CN1CCCC(C(=O)c2cccc(OC(C)C)c2)C1` (configuration not stated), the cell number change came out at 13.7%. Also, the half-maximal activity concentration (AC50) under setting [2] is 2.06 µM [rising, partial curve, poor fit].

For `O=C(Nc1cccc(Cl)c1)N1CCCCCC1`, the cell number change was 7.97%. For the same molecule, the AC50 under setting [2] is 0.651 µM [rising, single point]. `CCOC(=O)C(=CN(CCc1ccccc1)CC(=O)OC)C(=O)OCC`: the AC50 under setting [2] is 18.4 µM [rising, partial curve, poor fit].

For `COc1ccc(C2c3sc(=O)[nH]c3SC3C(=O)N(c4ccccc4)C(=O)C32)cc1` (configuration not stated), the AC50 under setting [2] is 3.26 µM [rising, partial curve]. On to `CCOC(=O)c1ccc(NC(=O)CCNC(=O)c2ccc([N+](=O)[O-])cc2)cc1`, for which the cell number change was 45.5%. Further, the AC50 under setting [1] was 1.64 µM [rising, full curve]. The AC50 under setting [2] was 9.2 µM [rising, partial curve]. Consider `COc1ccc(NC(=O)C2CC(=O)n3cnnc3S2)cc1` (configuration not stated), for which the cell number change is -41%. The AC50 under setting [1] was 0.731 µM [falling, full curve]. Also, under setting [2], the AC50 was 29.1 µM [falling, single point]. As to `O=C(/C=C/c1ccc(Cl)cc1Cl)N(Cc1ccc(Cl)cc1)C1CCS(=O)(=O)C1` (configuration not stated), the concentration at half-maximal activity (AC50) under setting [1] was 2.91 µM [falling, single point]. As to `CCOC(=O)C1=C(C)N(CCCCCC(=O)O)C(=O)NC1c1ccc(Br)cc1` (configuration not stated), the cell number change came to 16.5%. Also, the AC50 under setting [2] is 3.26 µM [falling, full curve, poor fit]. As to `COCCN(C(=O)COC(=O)/C=C/c1ccco1)c1c(N)n(Cc2ccccc2)c(=O)[nH]c1=O`, the cell number change is -14.4%. In addition, the AC50 under setting [2] was 29.1 µM [falling, single point]. With `O=C(OCC(=O)c1c[nH]c2ccccc12)c1cccc([N+](=O)[O-])c1`, the cell number change is 1.43%. Under setting [2], the AC50 was 0.00411 µM [rising, full curve, poor fit]. As to `CCNC(=O)CC1C(=O)N(c2ccc(C)cc2)C(=O)N1Cc1ccccn1` (configuration not stated), the cell number change is -5.81%. Further, the AC50 under setting [2] is 0.326 µM [falling, full curve]. As for `COc1ccc(C(C)=O)cc1COc1ccc(-n2cnnn2)cc1`, the cell number change is 51.1%. Also, under setting [1], the AC50 is 2.31 µM [rising, partial curve]. In addition, the AC50 under setting [2] was 0.58 µM [rising, single point].

In the case of `O=[N+]([O-])c1ccccc1/C=N/N1CCN(Cc2ccccc2)CC1`, the AC50 under setting [2] was 0.92 µM [falling, full curve]. As to `CCCCCCCCCCCCOC1OC(CO)C(O)C(O)C1NC(C)=O` (configuration not stated), the cell number change is -0.663%. In the case of `COc1ccc(N2CCN(C(=O)COC(=O)Cc3c(F)cccc3Cl)CC2)cc1`, the cell number change is 50.5%. For the same molecule, the AC50 under setting [1] is 7.31 µM [rising, partial curve].

For the molecule `Fc1ccc(C(c2ccc(F)cc2)N2CCN(C/C=C/c3ccccc3)CC2)cc1`, the cell number change was -61.8%. The AC50 under setting [1] is 18.4 µM [falling, partial curve]. Also, the AC50 under setting [2] is 29.1 µM [falling, single point].

For the molecule `COC(=O)CN1C(=O)[C@H]2[C@@H](/C=C/c3ccccc3)N3C(=O)CN(CCO)C(=O)[C@@]3(Cc3ccccc3)[C@H]2C1=O`, the cell number change came to 24.9%. The AC50 under setting [1] is 0.82 µM [rising, full curve, poor fit]. For the same molecule, the AC50 under setting [2] was 29.1 µM [rising, single point]. On to `CCOC(=O)c1cc2cc(F)ccc2nc1C`, for which the cell number change stood at 90.2%. Consider `O=C(NNC(=O)c1csc(N2CCOCC2)n1)c1cccnc1`, for which the cell number change was determined as 20.6%. Besides, the AC50 under setting [2] was 29.1 µM [falling, single point]. In the case of `Nc1c(C(=O)CSc2nc3ccccc3o2)c(=O)[nH]c(=O)n1C1CC1`, the cell number change is -2.49%. In addition, the AC50 under setting [2] was 29.1 µM [falling, single point]. In the case of `O=C(OCc1cccc(C(F)(F)F)c1)c1ccc[nH]c1=O`, the cell number change is -13.5%. Moreover, under setting [2], the AC50 is 6.51 µM [falling, partial curve].

For the molecule `CN1CCN(C(=O)CSc2ccc(C(F)(F)F)cc2[N+](=O)[O-])CC1`, the cell number change was 3.09%. In addition, under setting [2], the AC50 was 29.1 µM [rising, single point]. For the molecule `COc1ccc(/C=N/NC(N)=S)cc1`, the cell number change was 24.4%.

As for `O=C(O)c1ccc(NS(=O)(=O)c2ccc(N3C(=O)CCC3=O)cc2)cc1`, the cell number change is 22.6%. The concentration at half-maximal activity (AC50) under setting [1] is 0.103 µM [rising, full curve, poor fit]. For the same molecule, the AC50 under setting [2] is 29.1 µM [rising, single point].

For `COc1ccc(NS(=O)(=O)c2ccc3[nH]c(=O)[nH]c3c2)cc1OC`, the cell number change is -2.92%. The half-maximal activity concentration (AC50) under setting [2] was 0.164 µM [rising, full curve, poor fit]. For `Cc1noc(C)c1COC(=O)c1cc(F)c(F)cc1Cl`, the cell number change is -2.7%. Moreover, the AC50 under setting [2] is 0.13 µM [falling, full curve, poor fit].

As for `CN1CCN(C(=O)/C(=C\c2ccccc2)c2ccccc2)CC1`, the half-maximal activity concentration (AC50) under setting [2] is 29.1 µM [falling, single point].

Consider `O=C(Nc1ccc(Cl)c(Cl)c1)c1cccc(S(=O)(=O)NCc2cccnc2)c1`, for which the cell number change was 3.97%. The same measure, in the same setting: then `O=C(Cc1c(F)cccc1Cl)NCC(=O)OCc1ccccc1`, with -9.24%. Consider `CCCCC(O)(CCCC)C(=O)NN(C(=O)OC)c1ccc(C)cc1`, for which the cell number change was -18.7%. Besides, under setting [1], the AC50 is 0.116 µM [falling, full curve, poor fit]. In addition, the AC50 under setting [2] is 0.206 µM [falling, full curve, poor fit]. As for `Cc1ccccc1Nc1nnc(SCC(=O)NCc2ccco2)s1`, the cell number change is 20.5%. Also, under setting [2], the concentration at half-maximal activity (AC50) was 18.4 µM [rising, single point].

Turning to `Cc1csc(NC(=O)c2ccc(Cn3nc(C)c(Br)c3C)o2)n1`, the AC50 under setting [2] was 5.8 µM [falling, partial curve]. For `COc1cc(-c2noc(C)c2C#CC2(O)CCCCC2)cc(OC)c1OC`, the cell number change is -12%. In addition, the AC50 under setting [2] was 8.2 µM [falling, partial curve, poor fit]. Regarding `COc1cccc(NC(=O)CN(C)C(=O)c2ccc(N3CCCCC3)c([N+](=O)[O-])c2)c1`, the cell number change amounted to 3.63%. Further, the AC50 under setting [2] is 0.092 µM [falling, full curve, poor fit].
